# Laboratory results published in PubChem BioAssay AID1458 (National Center for Advancing Translational Sciences (NCATS), 2008).
# In all, about 210,000 compounds went through this assay and about 5,900 (2.8%) were called active. Roughly 5% stayed inconclusive and do not appear here. The call rests on the fitted dose curve; in most records, active means well fitted activation curve with a large enough effect; inconclusive means small, poorly fitted or top-dose-only effect; inactive means no such curve, though single readings can be large or run the other way. The list shows a part of the results, in another mix than the full data. The source gives no active or inactive call for entries shown without one.
# Test: qHTS Assay for Enhancers of SMN2 Splice Variant Expression; further: nearly all actives have a fitted effect of over 55% in size; on activity change, positive = activation: % of control where 0% means no effect
# Details: HEK293 SMN2-luciferase splicing reporter, luminescence, 30-36 h; activity change, positive = activation: at 46.1 µM (top of the series) unless noted
# Source text: NIH Chemical Genomics Center [NCGC] NIH Molecular Libraries Probe Production centers Network [MLPCN] MLPCN Grant: R03 MH084179-01 Assay Submitter (PI): Elliot Androphy NCGC Assay Overview: Spinal muscular atrophy (SMA) is caused by insufficient levels of the survival motor neuron protein SMN. The SMN locus on chromosome 5q13 contains two inverted copies of SMN called SMN1 and SMN2 which are 99% identical at the amino acid level. SMN1 is a fully functional protein and SMN2 skips exon 7 90% of the time. Skipping of exon 7 produces non-functional protein product. 10% of the SMN2 protein includes exon 7 and is fully functional. In the SMA disease state, mutations in the SMN1 locus are the cause of the disease state. Because only 10% of SMN2 is of the fully functional form, it is not sufficient to overcome the deficiency produced by the loss of the SMN1 product. A therapy that either increase the amount of SMN2 product made or to increase the inclusion of exon 7 has been proposed for the treatment of SMA. We have designed an assay to identify small molecules that can increase the amount of functional SMN2 product by appending a luciferase reporter gene after the native SMN2 gene, such that inclusion of exon 7 in the expressed product places the luciferase sequence in frame, thus generating functional luciferase enzyme.
# NCGC Assay Protocol Summary: This screen utilizes a luciferase reporter gene assay, combining the promoter and splicing based cassettes in tandem with the major portion of the native SMN2 cDNA, and then transfected into HEK293 cells. Compounds that increase luciferase signal presumably enhance expression of the functional SMN2 splice variant. Passaging media contained DMEM w/ glutamax (+phenol red) 10% FCS, 1x pen/strep, 200 ug/ml hygro, 1x sodium pyruvate. Assay media contained DMEM w/ glutamax (-phenol red) 10% FCS, 1x pen strep, 1x pyruvate Sequence, Parameter, Value, Description (1) Cells, […], 2000 cells/well, 1536 TC treated White solid bottom plate (2) Time, 10-12 hours, 37C 5% CO2 (3) Compound, 23 nl, MLSMR Library (4) Control Compound, 23 nL, Sodium butyrate st 4.5mM (final) conc (5) Time, 30-36 hours, 37C 5% CO2 (6) Reagent, 3 ul, One Glo (TM) from Promega (7) Time, 5-15 minutes, Room temp (8) Detector, Viewlux: luminescent read, 60 second integration, high speed 2x binning Keywords: Spinal muscular atrophy, SMA, SMN2, high throughput screening, MLSMR, MLPCN, NIH Roadmap, qHTS and NCGC
# Potency means the concentration at half of the fitted maximal effect.
Structure (SMILES),"activity change, positive = activation",Potency
CCSc1nnc2nc(C)cc(C)n12,30.4%,–
O=S(=O)(c1cccs1)n1cccn1,15.4%,–
Cc1cccc(-c2noc(CN(C(=O)c3ccc(Br)o3)C(C)C)n2)c1,-47.3%,–
COc1ccccc1N1CCN(C(=O)C2CCC(Cn3c(=S)[nH]c4ccccc4c3=O)CC2)CC1 (stereo not drawn),inactive: -46.5%,–
CCCCC(=O)OCC(=O)Nc1ccc(C)c(F)c1,inactive: -12.5%,–
CC(/C=C/c1ccccc1F)=N\NC(=O)c1ccccc1,–,active: 15.8 µM
C=CCNc1nnc(Cl)c2ccccc12,inactive: -32.1%,–
CC(C)OC(=O)C(C)Oc1ccc(C(=O)NCCc2ccccc2)cc1 (stereo not drawn),36.9%,–
CC1CCCC(C)N1c1nnc(NC(=O)c2cc(-c3ccc(Br)cc3)on2)s1 (stereo not drawn),inactive: -49.2%,–
Cc1ccc(CCNS(=O)(=O)c2cnc[nH]2)cc1,29.7%,–
CCOC(=O)CN(C(=O)CNC(=O)c1ccco1)C(C(=O)NC1CCCCC1)c1cccs1 (stereo not drawn),37.9%,–
CCCc1cc(=O)[nH]c(-n2[nH]c3c(c2=O)CCCC3)n1,-78.2%,–
COc1ccc(Cn2c(=O)[nH]c3cc(C(=O)N4CCN(c5ccccn5)CC4)ccc3c2=O)cc1,-53.2%,–
O=C(COc1ccccc1O)N1CCN(C(=O)c2ccco2)CC1,31.7%,–
CC1CCCN(c2nc3ccccc3nc2C(C#N)S(=O)(=O)c2cccs2)C1 (stereo not drawn),inactive: -36.8%,–
O=C(Nc1nc2ccc(F)cc2s1)C1=NN(c2ccccc2)C(=O)CC1,30.3%,–
CC(OC(=O)CNC(=O)c1ccccc1F)C(=O)Nc1nc(-c2ccccc2)cs1 (stereo not drawn),–,active: 12.6 µM
CC(C)c1ccc(NC(=S)NC2CCCCCC2)cc1,–,active: 12.6 µM
COc1ccc(CNC(=O)c2cccc(N(C)C)c2)cc1,27.4%,–
O=C(CS(=O)(=O)Cc1ccccc1)Nc1ncccn1,31.1%,–
NNc1nc(-c2ccccc2Cl)nc2sc3c(c12)CCCC3,-63.3%,–
O=C(N/N=C/C(Br)=C/c1ccccc1)C1CC1,51.1%,–
Fc1ccc2nc(Nc3ccccc3)sc2c1,–,active: 15.8 µM
O=C(NCc1ccc2c(c1)OCO2)c1cc(-c2ccccc2)on1,38.9%,–
Cc1ccc(Cn2ccc(NC(=O)CCSc3nc(-c4ccco4)cc(C(F)(F)F)n3)n2)cc1,21%,–
COc1cc(CN2CCN(Cc3ccc([N+](=O)[O-])cc3)CC2)c([N+](=O)[O-])cc1OC,inactive: -60.7%,–
O=C(Nc1cnc2ccccn2c1=O)c1ccc(Cl)cc1Cl,–,active: 1.58 µM

Structure (SMILES),"activity change, positive = activation",Potency
O=C(OCc1ccco1)c1ccc(S(=O)(=O)N2CCCCC2)cc1,15.2%,–
CN1CCN(c2ccc(NC(=O)c3ccc4c(c3)OCCO4)cc2Cl)CC1,–,active: 14.1 µM
COc1ccc(OCCSc2ncn[nH]2)cc1,33.9%,–
O=C(COc1ccc(F)cc1)Nc1nccs1,–,active: 11.2 µM
CCc1c(O)cc(=O)n(-c2ccccc2)c1-c1ccccc1,inactive: -12.2%,–
COc1ccccc1Nc1nc2ccccc2n1C,–,active: 11.2 µM
COc1ccc(Cc2nc(C(=O)Nc3ccccc3)cs2)cc1,inactive: -67.3%,–
O=C(CCSc1ccccc1)N1CCN(C(=O)c2ccco2)CC1,45.1%,–
NC(=O)Cc1ccc2sc(-c3ccccc3)nc2c1,-25.8%,–
C/C(O)=C\c1nc(=O)c2c(C)cc(C)nc2n1-c1ccccc1,38.2%,–
O=C(CSC1=Nc2ccccc2C2=NC(CCC(=O)NC3CCCCC3)C(=O)N12)Nc1cccc(Cl)c1 (stereo not drawn),46.5%,–
CC1(C)Cc2c(c(N3CCOCC3)nc3sc4c(NN)ncnc4c23)CS1,inactive: -61.4%,–
CCc1ccc2c(c1)C(c1ccc([N+](=O)[O-])cc1)=NNC(c1ccccc1)=N2,31.2%,–
CCCCOCC1CN(c2ccccc2)C(=O)CS1 (stereo not drawn),31%,–
Cc1ccccc1-c1ccc(C=Nc2c(C)n(C)n(-c3ccccc3)c2=O)o1,inactive: -34.1%,–
CCc1nnc(NC(=O)CCC(=O)N2CCN(Cc3ccc(Cl)cc3)CC2)s1,-49%,–
O=C(C1CCC(CNc2nc(=S)[nH]c3ccccc23)CC1)N1CCN(c2ccc(F)cc2)CC1 (stereo not drawn),-48.8%,–
CC1CC2(CC(C)(C(=O)CSc3n[nH]c(-c4ccccc4Cl)n3)OC2=O)C(=O)O1 (stereo not drawn),77.2%,–
Cc1ccc(-n2c(SCc3cn4ccsc4n3)nc3ccccc3c2=O)cc1,47.3%,–
COCc1nc(-c2ccc(-c3ccccc3)nc2OC)no1,–,active: 22.4 µM
CC1CN(S(=O)(=O)c2cccc(C(=O)Nc3ccc4c(c3)CCC4)c2)CC(C)O1 (stereo not drawn),-60.3%,–
O=C(O)c1ccc(/C=N/NC(=O)C2CC2(c2ccccc2)c2ccccc2)cc1 (stereo not drawn),40.1%,–
COc1ccc(NC(C)C(=O)N/N=C/c2ccc([N+](=O)[O-])s2)cc1 (stereo not drawn),inactive: -60.5%,–
O=C(N/N=C/c1ccc(O)cc1O)c1ccc(CN2C(=O)c3cccc4cccc2c34)cc1,inactive: -81.4%,–
CCn1c(=O)cc(SCC(=O)NCc2ccc(C)cc2)c2ccccc21,22.6%,–
Cc1cc2nc(-c3ccc(SCc4ccccc4C#N)nc3)[nH]c2cc1C,–,active: 11.2 µM

# Some of these compounds in order of SMILES length, low to high.
Structure (SMILES),"activity change, positive = activation",Potency
COc1ccccc1Nc1nc2ccccc2n1C,–,active: 11.2 µM
CCCCOCC1CN(c2ccccc2)C(=O)CS1 (stereo not drawn),31%,–
COc1ccc(Cc2nc(C(=O)Nc3ccccc3)cs2)cc1,inactive: -67.3%,–
O=C(CCSc1ccccc1)N1CCN(C(=O)c2ccco2)CC1,45.1%,–
C/C(O)=C\c1nc(=O)c2c(C)cc(C)nc2n1-c1ccccc1,38.2%,–
Cc1ccc(-n2c(SCc3cn4ccsc4n3)nc3ccccc3c2=O)cc1,47.3%,–
CC1(C)Cc2c(c(N3CCOCC3)nc3sc4c(NN)ncnc4c23)CS1,inactive: -61.4%,–
COc1ccc(NC(C)C(=O)N/N=C/c2ccc([N+](=O)[O-])s2)cc1 (stereo not drawn),inactive: -60.5%,–
O=C(N/N=C/c1ccc(O)cc1O)c1ccc(CN2C(=O)c3cccc4cccc2c34)cc1,inactive: -81.4%,–
